From patent US20050186665A1
Results are given in words; binding and its absence hold for the method and conditions named. Some binding calls cover weakened binding; strength is not graded here.

Sequences of proteins named here, by UniProt entry; tags and fusion partners are left off. A change or cut given only in a name is not applied to a line headed by its entry. Residues count along the entry.
UniProt O08538, residues 20-498: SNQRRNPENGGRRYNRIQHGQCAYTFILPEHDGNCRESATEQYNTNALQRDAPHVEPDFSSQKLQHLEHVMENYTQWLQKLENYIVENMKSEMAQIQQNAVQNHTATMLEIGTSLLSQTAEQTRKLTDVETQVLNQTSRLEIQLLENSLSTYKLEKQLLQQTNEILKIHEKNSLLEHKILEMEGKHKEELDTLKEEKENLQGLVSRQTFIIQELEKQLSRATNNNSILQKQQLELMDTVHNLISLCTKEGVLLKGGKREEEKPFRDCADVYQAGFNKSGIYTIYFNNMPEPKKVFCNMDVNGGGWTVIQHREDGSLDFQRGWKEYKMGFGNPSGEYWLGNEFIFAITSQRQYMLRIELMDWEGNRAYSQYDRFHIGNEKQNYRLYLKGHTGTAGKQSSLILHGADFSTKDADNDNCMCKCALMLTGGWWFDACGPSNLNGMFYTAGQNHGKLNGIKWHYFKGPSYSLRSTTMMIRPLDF
UniProt O15123: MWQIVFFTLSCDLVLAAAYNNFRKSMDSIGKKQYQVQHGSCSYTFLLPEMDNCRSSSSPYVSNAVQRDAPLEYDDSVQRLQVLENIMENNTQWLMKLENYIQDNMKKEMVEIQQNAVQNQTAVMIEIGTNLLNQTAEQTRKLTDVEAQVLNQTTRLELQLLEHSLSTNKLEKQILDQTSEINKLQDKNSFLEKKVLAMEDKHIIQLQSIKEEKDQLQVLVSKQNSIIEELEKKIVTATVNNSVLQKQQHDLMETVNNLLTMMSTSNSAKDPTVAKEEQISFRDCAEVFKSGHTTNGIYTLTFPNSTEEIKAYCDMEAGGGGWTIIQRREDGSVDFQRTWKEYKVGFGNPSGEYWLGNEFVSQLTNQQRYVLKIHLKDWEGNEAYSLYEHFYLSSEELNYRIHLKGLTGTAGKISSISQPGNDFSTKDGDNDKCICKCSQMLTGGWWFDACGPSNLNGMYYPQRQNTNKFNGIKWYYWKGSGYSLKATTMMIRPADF

Experiments:
[1] = target: mouse TIE-2 ligand (clone from the C2C12 ras cDNA library, pJFE14 encoding TIE-2 ligand, ATCC 75910) (mouse) (UniProt O08538); assay: staining of fixed, permeabilized transfected COS-7 cells with TIE-2 RB, anti-human IgG-alkaline phosphatase
[2] = target: human TIE-2 ligand 2 (human) (UniProt O15123); assay: staining of permeabilized transfected COS cells with TIE-2 receptorbody, anti-human IgG-alkaline phosphatase

TIE-2 receptorbody (entire extracellular portion of the rat TIE-2 receptor fused to the human immunoglobulin gamma-1 constant region, IgG1 Fc) (from UniProt A0ABK0L6J5 19-740) (Fc fusion)
binding [1]: binds | binding [2]: binds
